This passage reports binding results from US20110171231A1 (published 2011).

The assay deals with T1, recombinant mouse PlGF-2 (mouse, UniProt P49764 24-158, limits assumed).
T1 sequence (looked up): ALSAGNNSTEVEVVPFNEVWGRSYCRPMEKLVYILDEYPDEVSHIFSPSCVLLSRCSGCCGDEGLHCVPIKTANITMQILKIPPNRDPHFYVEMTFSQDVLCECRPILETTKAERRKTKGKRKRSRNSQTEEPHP
The experiment in a line: competition ELISA on mPlGF-coated plate; unlabelled NRP-1-Fc against biotinylated NRP-1-Fc.

No constants are given. Whether binding was seen depends on the method and setting. Some results given as binding are weak or reduced against the parent protein; the word gives no strength. Tags and fused reporters may be left off the sequences shown.

B1: biotinylated mouse NRP-1-Fc (Fc fusion, UniProt P97333 22-856, looked up, not shown: a dimerising Fc or GST)
chain: FRSDKCGGTIKIENPGYLTSPGYPHSYHPSEKCEWLIQAPEPYQRIMINFNPHFDLEDRDCKYDYVEVIDGENEGGRLWGKFCGKIAPSPVVSSGPFLFIKFVSDYETHGAGFSIRYEIFKRGPECSQNYTAPTGVIKSPGFPEKYPNSLECTYIIFAPKMSEIILEFESFDLEQDSNPPGGMFCRYDRLEIWDGFPEVGPHIGRYCGQKTPGRIRSSSGVLSMVFYTDSAIAKEGFSANYSVLQSSISEDFKCMEALGMESGEIHSDQITASSQYGTNWSVERSRLNYPENGWTPGEDSYKEWIQVDLGLLRFVTAVGTQGAISKETKKKYYVKTYRVDISSNGEDWISLKEGNKAIIFQGNTNPTDVVLGVFSKPLITRFVRIKPVSWETGISMRFEVYGCKITDYPCSGMLGMVSGLISDSQITASNQADRNWMPENIRLVTSRTGWALPPSPHPYTNEWLQVDLGDEKIVRGVIIQGGKHRENKVFMRKFKIAYSNNGSDWKTIMDDSKRKAKSFEGNNNYDTPELRTFSPLSTRFIRIYPERATHSGLGLRMELLGCEVEAPTAGPTTPNGNPVDECDDDQANCHSGTGDDFQLTGGTTVLATEKPTIIDSTIQSEFPTYGFNCEFGWGSHKTFCHWEHDSHAQLRWSVLTSKTGPIQDHTGDGNFIYSQADENQKGKVARLVSPVVYSQSSAHCMTFWYHMSGSHVGTLRVKLRYQKPEEYDQLVWMVVGHQGDHWKEGRVLLHKSLKLYQVIFEGEIGKGNLGGIAVDDISINNHISQEDCAKPTDLDKKNTEIKIDETGSTPGYEGEGEGDKNISRKPGNVLKTLDP
modifications: biotinylated
As to B1, the binding entry is given as “binds”.
